Assay results reported in US8476434B2, “Protein kinase modulators and method of use” (Amgen Inc., priority 2004, dated 2013).
Some entries share one result that the patent states for a list of compounds.

Chains of the proteins cited; added tags and fusions are not shown. Residues count along the entry.
UniProt Q96GD4, whole entry: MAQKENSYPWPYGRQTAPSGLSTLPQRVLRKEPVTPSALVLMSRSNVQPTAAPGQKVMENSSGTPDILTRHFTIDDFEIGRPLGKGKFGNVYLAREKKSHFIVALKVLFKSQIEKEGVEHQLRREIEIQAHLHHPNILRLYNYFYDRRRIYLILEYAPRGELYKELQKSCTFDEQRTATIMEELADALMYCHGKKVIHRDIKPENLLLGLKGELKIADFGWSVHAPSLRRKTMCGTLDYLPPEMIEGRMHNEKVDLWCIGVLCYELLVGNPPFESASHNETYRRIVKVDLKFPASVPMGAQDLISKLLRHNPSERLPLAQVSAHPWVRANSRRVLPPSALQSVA
UniProt Q02763, 23-1124: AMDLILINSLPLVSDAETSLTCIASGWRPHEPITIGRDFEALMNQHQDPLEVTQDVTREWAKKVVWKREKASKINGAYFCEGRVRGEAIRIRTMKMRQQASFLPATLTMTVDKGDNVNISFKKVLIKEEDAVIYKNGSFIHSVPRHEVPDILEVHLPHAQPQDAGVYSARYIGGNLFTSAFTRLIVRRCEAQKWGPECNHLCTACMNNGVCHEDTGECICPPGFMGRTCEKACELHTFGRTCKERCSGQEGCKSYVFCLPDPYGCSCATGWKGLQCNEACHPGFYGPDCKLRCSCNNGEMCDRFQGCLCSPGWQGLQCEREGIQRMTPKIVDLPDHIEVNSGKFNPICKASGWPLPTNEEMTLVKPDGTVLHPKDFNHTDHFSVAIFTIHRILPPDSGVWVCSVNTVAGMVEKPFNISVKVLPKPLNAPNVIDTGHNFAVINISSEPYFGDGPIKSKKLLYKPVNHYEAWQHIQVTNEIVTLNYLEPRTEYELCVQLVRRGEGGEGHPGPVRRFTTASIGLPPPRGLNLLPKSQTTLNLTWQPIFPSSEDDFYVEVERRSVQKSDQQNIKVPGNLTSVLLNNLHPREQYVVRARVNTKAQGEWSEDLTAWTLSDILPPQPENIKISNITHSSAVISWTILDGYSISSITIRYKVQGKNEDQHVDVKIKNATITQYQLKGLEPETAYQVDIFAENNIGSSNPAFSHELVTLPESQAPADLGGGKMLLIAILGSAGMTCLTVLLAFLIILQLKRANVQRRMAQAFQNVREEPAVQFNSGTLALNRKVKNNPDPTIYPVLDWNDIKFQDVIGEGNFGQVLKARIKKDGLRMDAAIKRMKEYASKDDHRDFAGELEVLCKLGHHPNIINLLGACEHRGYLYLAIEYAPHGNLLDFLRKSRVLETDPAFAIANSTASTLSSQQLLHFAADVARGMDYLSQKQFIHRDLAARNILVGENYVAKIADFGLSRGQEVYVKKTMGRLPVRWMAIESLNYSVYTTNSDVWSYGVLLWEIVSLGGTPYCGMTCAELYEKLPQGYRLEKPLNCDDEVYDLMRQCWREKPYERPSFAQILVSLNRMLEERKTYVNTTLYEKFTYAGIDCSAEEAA

Key:
Assay type in all cases: biochemical
AuroraA-TPX2 KD GST = target: T1, AuroraA-TPX2 KD GST (Homo sapiens, UniProt O14965); assay: AuroraA-TPX2 Homogeneous Time Resolved Fluorescent (HTRF) kinase assay; settings: read-out: activity in the Aurora kinase A HTRF assay
T1 construct: AuroraA-TPX2 KD GST; GST
T1 sequence (O14965 133-383 limits assumed): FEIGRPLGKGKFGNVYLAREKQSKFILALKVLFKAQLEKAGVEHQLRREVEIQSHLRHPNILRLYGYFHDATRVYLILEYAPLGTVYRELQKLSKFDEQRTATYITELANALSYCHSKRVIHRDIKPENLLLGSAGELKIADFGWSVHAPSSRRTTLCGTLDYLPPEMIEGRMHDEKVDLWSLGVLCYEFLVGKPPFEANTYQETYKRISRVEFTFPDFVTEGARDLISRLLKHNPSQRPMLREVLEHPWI
T1 sequence (Q9ULW0 1-43 partner limits assumed): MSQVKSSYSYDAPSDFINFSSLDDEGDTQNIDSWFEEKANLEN

AuroraB FL His = target: T2, AuroraB FL His (Homo sapiens, UniProt Q96GD4); assay: AuroraB Homogeneous Time Resolved Fluorescent (HTRF) kinase assay; settings: read-out: activity in the Aurora kinase B HTRF assay
T2 construct: AuroraB FL His; His

Tie-2 kinase enzyme = Tie-2 kinase enzyme (Homo sapiens, UniProt Q02763); assay: Tie-2 Homogenous Time Resolved Fluorescent (HTRF) kinase assay; settings: read-out: IC50's for the inhibition of Tie-2 as measured by the HTRF assay

SMILES | IC50 (AuroraA-TPX2 KD GST) | IC50 (AuroraB FL His) | IC50 (Tie-2 kinase enzyme)
CNc1nccc(-c2cccnc2Oc2ccc(NC(=O)Nc3cccc(Cl)c3)c(C)c2C)n1 [Example 890, N-(3-chlorophenyl)-N′-(2,3-dimethyl-4-((3-(2-(methylamino)-4-pyrimidinyl)-2-pyridinyl)oxy)phenyl)urea] | < 10 µM | < 10 µM | < 5 µM
CNc1nccc(-c2cccnc2Oc2ccc(NC(=O)Nc3cc(C(F)(F)F)ccc3OC)c(C)c2C)n1 [Example 897, N-(2,3-dimethyl-4-((3-(2-(methylamino)-4-pyrimidinyl)-2-pyridinyl)oxy)phenyl)-N′-(2-(methyloxy)-5-(trifluoromethyl)phenyl)urea] | < 10 µM | < 10 µM | < 5 µM
CNc1nccc(-c2cccnc2Oc2ccc(NC(=O)Nc3cccc(F)c3)c(C)c2C)n1 [Example 898, N-(2,3-dimethyl-4-((3-(2-(methylamino)-4-pyrimidinyl)-2-pyridinyl)oxy)phenyl)-N′-(3-fluorophenyl)urea] | < 10 µM | < 10 µM | < 5 µM
CNc1nccc(-c2cccnc2Oc2ccc(NC(=O)Nc3cccc(F)c3)cc2)n1 [Example 899, N-(3-fluorophenyl)-N′-(4-((3-(2-(methylamino)-4-pyrimidinyl)-2-pyridinyl)oxy)phenyl)urea] | < 10 µM | < 10 µM | < 5 µM
CNc1nccc(-c2cccnc2Oc2ccc(NC(=O)Nc3cccc(Br)c3)cc2)n1 [Example 903, N-(3-bromophenyl)-N′-(4-((3-(2-(methylamino)-4-pyrimidinyl)-2-pyridinyl)oxy)phenyl)urea] | < 10 µM | < 10 µM | < 5 µM
CNc1nccc(-c2cccnc2Oc2ccc(NC(=O)Nc3cccc(Cl)c3)cc2)n1 [Example 905, N-(3-chlorophenyl)-N′-(4-((3-(2-(methylamino)-4-pyrimidinyl)-2-pyridinyl)oxy)phenyl)urea] | < 10 µM | < 10 µM | < 5 µM
CNc1nccc(-c2cccnc2Oc2ccc(NC(=O)Nc3ccccc3)cc2)n1 [Example 914, N-(4-((3-(2-(methylamino)-4-pyrimidinyl)-2-pyridinyl)oxy)phenyl)-N′-phenylurea] | < 10 µM | < 10 µM | < 5 µM
CNc1nccc(-c2cccnc2Oc2ccc(NC(=O)Nc3cccc(C(F)(F)F)c3)cc2)n1 [Example 928, N-(4-((3-(2-(methylamino)-4-pyrimidinyl)-2-pyridinyl)oxy)phenyl)-N′-(3-(trifluoromethyl)phenyl) urea] | < 10 µM | < 10 µM | < 5 µM
CNc1ncc(F)c(-c2cccnc2Oc2ccc(NC(=O)Nc3cccc(C(F)(F)F)c3)cc2)n1 [Example 939, N-(4-((3-(5-fluoro-2-(methylamino)-4-pyrimidinyl)-2-pyridinyl)oxy)phenyl)-N′-(3-(trifluoromethyl)phen-yl)urea] | < 10 µM | < 10 µM | < 5 µM
CNc1nccc(-c2cccnc2Oc2ccc(NC(=O)c3ccc(Cl)cc3)cc2C)n1 [Example 943, 4-chloro-N-(3-methyl-4-((3-(2-(methylamino)-4-pyrimidinyl)-2-pyridinyl)oxy)phenyl) benzamide] | < 10 µM | < 10 µM | < 5 µM
CNc1nccc(-c2cccnc2Oc2ccc(NC(=O)Nc3ccc(Cl)cc3)cc2)n1 [Example 945, N-(4-chlorophenyl)-N′-(4-((3-(2-(methylamino)-4-pyrimidinyl)-2-pyridinyl)oxy)phenyl)urea] | < 10 µM | < 10 µM | < 5 µM
CNc1nccc(-c2cccnc2Oc2ccc(NC(=O)c3cc4ccccc4s3)cc2C)n1 [Example 948, N-(3-methyl-4-((3-(2-(methylamino)-4-pyrimidinyl)-2-pyridinyl)oxy)phenyl)-1-benzothiophene-2-carboxamide] | < 10 µM | < 10 µM | < 5 µM
CNc1nccc(-c2cccnc2Oc2ccc(NC(=O)c3ccc(Cl)s3)cc2C)n1 [Example 952, 5-chloro-N-(3-methyl-4-((3-(2-(methylamino)-4-pyrimidinyl)-2-pyridinyl)oxy)phenyl)-2-thiophenecarboxamide] | < 10 µM | < 10 µM | < 5 µM
CNc1nccc(-c2cccnc2Oc2ccc(NC(=O)c3ccc(C)s3)cc2C)n1 [Example 953, 5-methyl-N-(3-methyl-4-((3-(2-(methylamino)-4-pyrimidinyl)-2-pyridinyl)oxy)phenyl)-2-thiophenecarboxamide] | < 10 µM | < 10 µM | < 5 µM
CNc1nccc(-c2cccnc2Oc2ccc(NC(=O)c3cccc(Br)c3)cc2C)n1 [Example 956, 3-bromo-N-(3-methyl-4-((3-(2-(methylamino)-4-pyrimidinyl)-2-pyridinyl)oxy)phenyl) benzamide] | < 10 µM | < 10 µM | < 5 µM
CNc1nccc(-c2cccnc2Oc2ccc(NC(=O)Nc3ccc(Cl)cc3)c(C)c2C)n1 [Example 961, N-(4-chlorophenyl)-N′-(2,3-dimethyl-4-((3-(2-(methylamino)-4-pyrimidinyl)-2-pyridinyl)oxy)phenyl)urea] | < 10 µM | < 10 µM | < 5 µM
CNc1nccc(-c2cccnc2Oc2ccc(NC(=O)Nc3cccc(C(F)(F)F)c3)c(C)c2)n1 [Example 966, N-(2-methyl-4-((3-(2-(methylamino)-4-pyrimidinyl)-2-pyridinyl)oxy)phenyl)-N′-(3-(trifluoromethyl)phen-yl)urea] | < 10 µM | < 10 µM | < 5 µM
CNc1ncnc(-c2cccnc2Oc2ccc(NC(=O)Nc3cc(C(F)(F)F)ccc3N(C)[C@@H]3CCN(C)C3)c3ccccc23)n1 [Example 967, N-(4-((3-(4-(methylamino)-1,3,5-triazin-2-yl)-2-pyridinyl)oxy)-1-naphthalenyl)-N′-(2-(methyl((3R)-1-methyl-3-pyrrolidinyl)amino)-5-(trifluoromethyl)phen-yl)urea] | < 10 µM | < 10 µM | < 5 µM
CNc1nccc(-c2cccnc2Oc2ccc(NC(=O)c3ccc4ccccc4c3)cc2C)n1 [Example 968, N-(3-methyl-4-((3-(2-(methylamino)-4-pyrimidinyl)-2-pyridinyl)oxy)phenyl)-2-naphthalenecarboxamide] | < 10 µM | < 10 µM | < 5 µM
CNc1nccc(-c2cccnc2Oc2ccc(NC(=O)Nc3ccc(Cl)cc3)c(C)c2)n1 [Example 970, N-(4-chlorophenyl)-N′-(2-methyl-4-((3-(2-(methylamino)-4-pyrimidinyl)-2-pyridinyl)oxy)phenyl)urea] | < 10 µM | < 10 µM | < 5 µM
CNc1nccc(-c2cccnc2Oc2ccc(NC(=O)c3ccsc3)cc2C)n1 [Example 971, N-(3-methyl-4-((3-(2-(methylamino)-4-pyrimidinyl)-2-pyridinyl)oxy)phenyl)-3-thiophenecarboxamide] | < 10 µM | < 10 µM | < 5 µM
CNc1nccc(-c2cccnc2Oc2ccc(NC(=O)Nc3ccc(F)cc3)cc2)n1 [Example 973, N-(4-fluorophenyl)-N′-(4-((3-(2-(methylamino)-4-pyrimidinyl)-2-pyridinyl)oxy)phenyl)urea] | < 10 µM | < 10 µM | < 5 µM
